# Reference: the supplement of paper PMC4604168 (melanoma cell lines)
# This is one part of the list. Repeats are few or missing, and single values can be far off.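 Imaging used 1,536-well plates; nuclei positive for cleaved PARP by antibody were divided by total DNA-stained nuclei to yield the apoptosis fraction. Doses for screening kept most cells viable, and cell lines differ markedly in resting and induced cleaved-PARP levels.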
# Experiments:
# Assay in all cases: cleaved PARP positive nuclei fraction relative to DMSO control; melanoma cells; higher = more apoptosis
# Details in all cases: library dose: low library concentration; 72 h
# COLO792 = tested on: COLO792
# COLO800 = tested on: COLO800
# COLO829 = tested on: COLO829
# G361 = tested on: G361
# IPC-298 = tested on: IPC-298
# IST-MEL1 = tested on: IST-MEL1
# LB2518-MEL = tested on: LB2518-MEL
# LOXIMVI = tested on: LOXIMVI
# MEL-HO = tested on: MEL-HO
SMILES,cleaved PARP positive nuclei fraction (COLO792),cleaved PARP positive nuclei fraction (COLO800),cleaved PARP positive nuclei fraction (COLO829),cleaved PARP positive nuclei fraction (G361),cleaved PARP positive nuclei fraction (IPC-298),cleaved PARP positive nuclei fraction (IST-MEL1),cleaved PARP positive nuclei fraction (LB2518-MEL),cleaved PARP positive nuclei fraction (LOXIMVI),cleaved PARP positive nuclei fraction (MEL-HO)
"N.N.[Cl][Pt][Cl] [cisplatin] + NC(=O)Nc1cc(-c2cccc(F)c2)sc1C(=O)N[C@H]1CCCNC1 [AZD7762] (first compound 1.6 µM, partner dose 0.02 µM)",122%,174%,67.3%,153%,183%,99.5%,71.6%,76.5%,107%
"Cn1cc(C2=C(c3cn(C4CCN(Cc5ccccn5)CC4)c4ccccc34)C(=O)NC2=O)c2ccccc21 [Enzastaurin] + CCN(CC)CCCCNc1ncc2cc(-c3cc(OC)cc(OC)c3)c(NC(=O)NC(C)(C)C)nc2n1 [PD173074] (first compound 0.8 µM, partner dose 0.1 µM)",83.9%,92.1%,92.7%,111%,83.1%,83%,85.7%,69.5%,–
"C[C@]12O[C@H](C[C@]1(O)CO)n1c3ccccc3c3c4c(c5c6ccccc6n2c5c31)CNC4=O [Lestaurtinib] + c1cc(-c2cnn3cc(-c4ccc(OCCN5CCCCC5)cc4)cnc23)ccn1 [Dorsomorphin] (first compound 0.004 µM, partner dose 0.4 µM)",163%,143%,106%,121%,132%,42.4%,138%,73.9%,–
"N.N.[Cl][Pt][Cl] [cisplatin] + O=c1cc(-c2cccc3c2Sc2ccccc2S3)oc(N2CCOCC2)c1 [KU55933] (first compound 1.6 µM, partner dose 1 µM)",74.9%,81.6%,80.6%,108%,43.8%,86.3%,72.2%,198%,–
"C[C@]1(O)C[C@@H](c2nc(-c3ccc4ccc(-c5ccccc5)nc4c3)c3c(N)nccn32)C1 + C/C(O)=C(\C#N)C(=O)Nc1cc(Br)ccc1Br [LFM-A13] (first compound 0.4 µM, partner dose 2 µM)",71.5%,322%,161%,194%,168%,105%,81.3%,173%,–
"Nc1nc(F)nc2c1ncn2[C@@H]1O[C@H](CO)[C@@H](O)[C@@H]1O [fludarabine] + Cc1cc(SCc2sc(-c3ccc(C(F)(F)F)c(F)c3)nc2C)ccc1OCC(=O)O [GW0742] (first compound 0.2 µM, partner dose 2 µM)",57.3%,165%,94.7%,128%,66.3%,92.8%,65.4%,108%,–
"N.N.[Cl][Pt][Cl] [cisplatin] + O=C1NC(=O)/C(=C/c2ccc(-c3ccc(F)cc3O)o2)S1 [AS252424] (first compound 1.6 µM, partner dose 1 µM)",66.8%,183%,157%,80.2%,150%,190%,102%,162%,–
"C[C@]12O[C@H](C[C@]1(O)CO)n1c3ccccc3c3c4c(c5c6ccccc6n2c5c31)CNC4=O [Lestaurtinib] + CCCCCCCCCCCC1=C(O)C(=O)C=C(O)C1=O [Embelin] (first compound 0.004 µM, partner dose 1.2 µM)",74.9%,94.1%,55.4%,138%,92.6%,106%,81.1%,114%,–
"O=C(Nc1cc(C(F)(F)F)cc(C(F)(F)F)c1)c1cc(Cl)ccc1O + C/C(O)=C(\C#N)C(=O)Nc1cc(Br)ccc1Br [LFM-A13] (first compound 0.016 µM, partner dose 2 µM)",55.5%,87.5%,103%,92.7%,91.3%,103%,63.9%,69%,–
"O=C(O)[C@@H]1[O][Sb](=[O])([O][Sb]2(=[O])[O][C@H]([C@H](O)CO)[C@H](O)[C@H](C(=O)O)[O]2)[O][C@H]([C@H](O)CO)[C@@H]1O (stereo partly drawn) [stibogluconate] + C/C(O)=C(\C#N)C(=O)Nc1cc(Br)ccc1Br [LFM-A13] (first compound 2 µM, partner dose 2 µM)",155%,24.2%,138%,85.3%,125%,233%,66.7%,182%,–
"C[C@]12O[C@H](C[C@]1(O)CO)n1c3ccccc3c3c4c(c5c6ccccc6n2c5c31)CNC4=O [Lestaurtinib] + COc1cc(Nc2ncc(F)c(Nc3ccc4c(n3)NC(=O)C(C)(C)O4)n2)cc(OC)c1OC [Tamatinib] (first compound 0.004 µM, partner dose 0.4 µM)",156%,68.2%,95.8%,82.3%,61.7%,240%,114%,204%,89.6%
"CC[C@]1(O)C[C@H]2CN(CCc3c([nH]c4ccccc34)[C@@](C(=O)OC)(c3cc4c(cc3OC)N(C=O)[C@H]3[C@@](O)(C(=O)OC)[C@H](OC(C)=O)[C@]5(CC)C=CCN6CC[C@]43[C@@H]65)C2)C1 [vincristine] + C/C(O)=C(\C#N)C(=O)Nc1cc(Br)ccc1Br [LFM-A13] (first compound 0.0001 µM, partner dose 2 µM)",116%,71.6%,83.4%,131%,96.8%,65.8%,89.3%,132%,–
"C[As](C)SC[C@H](NC(=O)CC[C@H](N)C(=O)O)C(=O)NCC(=O)O [Darinaparsin] + Cn1cncc1[C@@](N)(c1ccc(Cl)cc1)c1ccc2c(c1)c(-c1cccc(Cl)c1)cc(=O)n2C [tipifarnib] (first compound 0.4 µM, partner dose 0.01 µM)",95.1%,126%,78.1%,194%,47.3%,222%,54.8%,53.1%,131%
"N.N.[Cl][Pt][Cl] [cisplatin] + CCc1ccc(CCOc2ccc(CC3SC(=O)NC3=O)cc2)nc1 [pioglitazone] (first compound 1.6 µM, partner dose 2 µM)",79.8%,109%,52.8%,143%,135%,127%,97.9%,122%,–
"C=CCNC1=C2C[C@@H](C)C[C@H](OC)[C@H](O)[C@@H](C)/C=C(\C)[C@H](OC(N)=O)[C@@H](OC)/C=C\C=C(/C)C(=O)NC(=CC1=O)C2=O [Tanespimycin] + C/C(O)=C(\C#N)C(=O)Nc1cc(Br)ccc1Br [LFM-A13] (first compound 0.002 µM, partner dose 2 µM)",67.7%,133%,63.5%,102%,88.4%,19.4%,45.6%,40.8%,–
"O=C(O)[C@@H]1[O][Sb](=[O])([O][Sb]2(=[O])[O][C@H]([C@H](O)CO)[C@H](O)[C@H](C(=O)O)[O]2)[O][C@H]([C@H](O)CO)[C@@H]1O (stereo partly drawn) [stibogluconate] + O=C(Oc1ccc([N+](=O)[O-])cc1)N1CCC(C(O)(c2ccc3c(c2)OCO3)c2ccc3c(c2)OCO3)CC1 [JZL184] (first compound 2 µM, partner dose 1 µM)",83.1%,72.9%,264%,119%,96.1%,184%,74.8%,69.4%,–
"CN(c1ncccc1CNc1nc(Nc2ccc3c(c2)CC(=O)N3)ncc1C(F)(F)F)S(C)(=O)=O + O=C(Oc1ccc([N+](=O)[O-])cc1)N1CCC(C(O)(c2ccc3c(c2)OCO3)c2ccc3c(c2)OCO3)CC1 [JZL184] (first compound 0.08 µM, partner dose 1 µM)",117%,38.2%,84.6%,58%,46.7%,64.9%,65%,69.8%,–
"CC(=O)O[C@@]12CO[C@@H]1C[C@H](O)[C@@]1(C)C(=O)[C@H](O)C3=C(C)[C@@H](OC(=O)[C@H](O)[C@@H](NC(=O)OC(C)(C)C)c4ccccc4)C[C@@](O)([C@@H](OC(=O)c4ccccc4)[C@H]21)C3(C)C [Docetaxel] + Cc1cc(SCc2sc(-c3ccc(C(F)(F)F)c(F)c3)nc2C)ccc1OCC(=O)O [GW0742] (first compound 0.0001 µM, partner dose 2 µM)",382%,1010%,281%,507%,143%,45.4%,311%,145%,–
"NC1(c2ccc(-c3nc4ccn5c(=O)[nH]nc5c4cc3-c3ccccc3)cc2)CCC1 + O=C(Oc1ccc([N+](=O)[O-])cc1)N1CCC(C(O)(c2ccc3c(c2)OCO3)c2ccc3c(c2)OCO3)CC1 [JZL184] (first compound 0.4 µM, partner dose 1 µM)",121%,75.4%,237%,67.1%,92.7%,58.2%,141%,67.3%,–
"CC(=O)c1c(C)c2cnc(Nc3ccc(N4CCNCC4)cn3)nc2n(C2CCCC2)c1=O [palbociclib] + C/C(O)=C(\C#N)C(=O)Nc1cc(Br)ccc1Br [LFM-A13] (first compound 0.04 µM, partner dose 2 µM)",186%,71.2%,77.6%,76.6%,171%,105%,77.5%,45.7%,–

# Some of the entries so far, bar-delimited.
SMILES | cleaved PARP positive nuclei fraction (COLO792) | cleaved PARP positive nuclei fraction (COLO800) | cleaved PARP positive nuclei fraction (COLO829) | cleaved PARP positive nuclei fraction (G361) | cleaved PARP positive nuclei fraction (IPC-298) | cleaved PARP positive nuclei fraction (IST-MEL1) | cleaved PARP positive nuclei fraction (LB2518-MEL) | cleaved PARP positive nuclei fraction (LOXIMVI) | cleaved PARP positive nuclei fraction (MEL-HO)
CN(c1ncccc1CNc1nc(Nc2ccc3c(c2)CC(=O)N3)ncc1C(F)(F)F)S(C)(=O)=O + O=C(Oc1ccc([N+](=O)[O-])cc1)N1CCC(C(O)(c2ccc3c(c2)OCO3)c2ccc3c(c2)OCO3)CC1 [JZL184] (first compound 0.08 µM, partner dose 1 µM) | 117% | 38.2% | 84.6% | 58% | 46.7% | 64.9% | 65% | 69.8% | –
NC1(c2ccc(-c3nc4ccn5c(=O)[nH]nc5c4cc3-c3ccccc3)cc2)CCC1 + O=C(Oc1ccc([N+](=O)[O-])cc1)N1CCC(C(O)(c2ccc3c(c2)OCO3)c2ccc3c(c2)OCO3)CC1 [JZL184] (first compound 0.4 µM, partner dose 1 µM) | 121% | 75.4% | 237% | 67.1% | 92.7% | 58.2% | 141% | 67.3% | –
